PubChem BioAssay AID1259405 – NCATS | 2018
Shown is an unselected part of about 50,000 reagents tested. About 4,000 of all reagents (8%) were called active. 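Mouse siRNA library applied to hamster cells; one well for each siRNA.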 The numbers tell different reagents against one gene apart. Not all columns of the deposit are shown.

Test: 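Silenced genes that increase secreted GFP made by CHO cells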 (primary screen)
Cell system: Chinese hamster CHO-K1 ovary cells with stable secreted eGFP expression
Knock-down reagent: single siRNA against mouse genes, 0.8 pmol siRNA per well (2 µl of 400 nM stock)
Timing: 3 days
Measurement: 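Per-well intracellular GFP measured by laser scanning cytometry, plus viability from ATP luminescence, each relative to plate median of non-targeting control wells, in %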
Direction: GFP, % of control: higher = more GFP per well, higher productivity
Active means: 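Called active when intracellular GFP, relative to negative control, is at or above 120%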

GFP, % of control, by target and reagent
Vmn1r62: #1 113 inactive; #2 104 inactive; #3 78.8 inactive
Or10g6: #1 60.3 inactive; #2 94 inactive; #3 75.1 inactive
Srrm3: #1 76.4 inactive; #2 85.6 inactive; #3 77.6 inactive
Lpar2: #1 139 active; #2 63.3 inactive; #3 53.6 inactive
Serpina1e: #1 38.3 inactive; #2 57.7 inactive; #3 89.1 inactive
Rnase6: #1 113 inactive; #2 89.2 inactive; #3 93.9 inactive
Rrad: #1 114 inactive; #2 155 active; #3 50.9 inactive
Sacm1l: #1 89.8 inactive; #2 86 inactive; #3 87.2 inactive
Adra2a: #1 73.7 inactive; #2 79.2 inactive; #3 76.7 inactive
Ap4e1: #1 88.8 inactive; #2 66.4 inactive; #3 155 active
Otog: #1 121 active; #2 65.9 inactive
Bcl2l13: #1 85.6 inactive; #2 64.5 inactive
Paqr3: #1 223 active; #2 88.5 inactive; #3 25.3 inactive
Tcaim: #1 56.8 inactive; #2 93.9 inactive; #3 98.5 inactive
Polr2b: #1 121 active; #2 100 inactive
Bcl2l14: #1 47 inactive; #2 62.2 inactive; #3 46.9 inactive
Gp9: #1 145 active; #2 56 inactive
Defb38: #1 50.8 inactive; #2 46.1 inactive; #3 91.1 inactive
Mt2: #1 66 inactive; #2 88.3 inactive; #3 64 inactive
Vps8: #1 112 inactive; #2 87.8 inactive; #3 72.2 inactive
9130221H12Rik: #1 74 inactive; #2 118 inactive; #3 119 inactive
Rdh12: #1 101 inactive; #2 56.2 inactive; #3 61 inactive
Prim2: #1 111 inactive; #2 96.6 inactive
Il18: #1 74.1 inactive; #2 62.1 inactive; #3 79.2 inactive
Klk1b9: #1 66 inactive; #2 84.2 inactive; #3 95.5 inactive
Col11a1: #1 46.8 inactive; #2 103 inactive; #3 63.7 inactive
Elmo1: #1 63.2 inactive; #2 64.1 inactive; #3 53.5 inactive
Obp2a: #1 96 inactive; #2 68.7 inactive; #3 74.4 inactive
Cited2: #1 91.4 inactive; #2 56.5 inactive
Flot2: #1 103 inactive; #2 85.9 inactive
Cd300c: #1 67.8 inactive; #2 67.4 inactive; #3 105 inactive
